PubChem BioAssay AID504808 | Drosophila RNAi Screening Center | 2011
The screen tested about 21,000 reagents; this is an unselected part of those with a known target gene and a result. In the full data, 18 (0.084%) were called active. 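Raw counts without plate normalisation, one of two replicates; the ratio scores behind the calls were not deposited.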 The numbers tell different reagents against one gene apart. A plus sign joins genes that one reagent is predicted to hit. The record does not give: the amount of reagent, the time to read-out.

Purpose: 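Chromatin factors that keep E2F targets switched off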 (primary screen)
Cell system: Drosophila S2 cells
Knock-down reagent: long dsRNA against Drosophila genes
Detection: 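Dual luciferase plate measurements; E2F-specific signal taken as firefly over Renilla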
Scale: E2F firefly: higher = more E2F reporter activity; Renilla normaliser: higher = more normaliser reporter signal
Call rule: 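a knock-down counted as active when the firefly/Renilla E2F signal rose above 50%, a threshold chosen arbitrarily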

The first 9 entries, ahead of the listing:
no.	Target gene	reagent	E2F firefly, rep 1	Renilla normaliser, rep 1	Call
1	Pos (Poseidon)	1	1.39e5	6775	inactive
2	obst-G (obstructor-G)	1	1.11e5	7753	inactive
3	CG34223	1	1.30e5	4981	inactive
4	CG13308	1	1.08e5	4011	inactive
5	CG17770 + Acam	1	1.14e5	6872	inactive
6	CG17770 + Acam	2	1.12e5	5551	inactive
7	Ptr (Patched-related)	1	1.04e5	4302	inactive
8	CG31082 (retired record)	1	77218	2603	inactive
9	Tob (Transducer of ERBB2)	1	8082	680	inactive

Main list, from the start:
no.	Target gene	reagent	E2F firefly, rep 1	Renilla normaliser, rep 1	Call
1	Pos (Poseidon)	1	1.39e5	6775	inactive
2	obst-G (obstructor-G)	1	1.11e5	7753	inactive
3	CG34223	1	1.30e5	4981	inactive
4	CG13308	1	1.08e5	4011	inactive
5	CG17770 + Acam	1	1.14e5	6872	inactive
6	CG17770 + Acam	2	1.12e5	5551	inactive
7	Ptr (Patched-related)	1	1.04e5	4302	inactive
8	CG31082 (retired record)	1	77218	2603	inactive
9	Tob (Transducer of ERBB2)	1	8082	680	inactive
10	E(z) (Enhancer of zeste)	1	85047	231	inactive
11	CG2574	1	66227	3167	inactive
12	yellow-d2	1	1.01e5	4668	inactive
13	CG4709	1	74184	3454	inactive
14	CG8500	1	1.09e5	7346	inactive
15	Phax (Phosphorylated adaptor for RNA export)	1	1.57e5	4638	inactive
16	dor (deep orange)	1	1858	1048	inactive
17	Got2 (Glutamate oxaloacetate transaminase 2)	1	88377	3695	inactive
18	gt (giant)	1	98592	4591	inactive
19	CG11356	1	1.45e5	6286	inactive
20	CG5561	1	1.74e5	6372	inactive
21	CG15570	1	1.10e5	5934	inactive
22	robo2 (roundabout 2)	1	1.54e5	5686	inactive
23	robo2 (roundabout 2)	2	1.70e5	5864	inactive
24	robo2 (roundabout 2)	3	1.68e5	5747	inactive
25	robo2 (roundabout 2)	4	75754	3055	inactive
26	Gdi (GDP dissociation inhibitor)	1	93656	3962	inactive
27	CG30283	1	1.06e5	5017	inactive
28	tbrd-1	1	1.13e5	6175	inactive
29	mre11 (meiotic recombination 11)	1	92944	3602	inactive
30	CG14811	1	1.18e5	5922	inactive
31	Polr3E (RNA polymerase III subunit E)	1	1.24e5	7131	inactive
32	skl (sickle)	1	1.56e5	8307	inactive
33	CG15741	1	1.41e5	6548	inactive
34	lectin-24A	1	1.51e5	5198	inactive
35	CG5541	1	8043	708	inactive
36	CG34260 + cmpy	1	1.24e5	6015	inactive
37	CG4045	1	1833	1020	inactive
38	lbm (late bloomer)	1	1.47e5	5122	inactive
39	RhoGEF2 (Rho guanine nucleotide exchange factor 2)	1	63223	3185	inactive
40	PIG-Wa (Phosphatidylinositol glycan anchor biosynthesis class W a)	1	1.49e5	4820	inactive
41	CG5850	1	79088	3393	inactive
42	Mad1 (Mitotic arrest-deficient 1)	1	3087	50	inactive
43	CG11151	1	1.48e5	13471	inactive
44	TwdlR (TweedleR)	1	93220	5109	inactive
45	Gr93a (Gustatory receptor 93a)	1	1.49e5	6555	inactive
46	CG8191 + CG12379	1	1.63e5	6254	inactive
47	Alg3 (ALG3, alpha-1,3- mannosyltransferase)	1	76982	3622	inactive
48	Ugalt (UDP-galactose transporter)	1	1.09e5	4945	inactive
49	Sps1 (Selenophosphate synthetase 1)	1	2881	215	inactive
50	CG3335	1	76311	5758	inactive
51	spag4 (sperm-associated antigen 4)	1	1.45e5	5092	inactive
52	CG3862	1	87986	3523	inactive
53	CG9899	1	1.08e5	4199	inactive
54	CG31633	1	1.48e5	5308	inactive
55	tilB (touch insensitive larva B)	1	1.47e5	7218	inactive
56	CG12278	1	96470	6917	inactive
57	RhoGAP16F (Rho GTPase activating protein at 16F)	1	1.41e5	5372	inactive
58	Ucp4A (Uncoupling protein 4A)	1	2.54e5	7518	inactive
59	CG17234	1	1.60e5	5254	inactive
60	CG10359	1	78697	4026	inactive
61	CG4661	1	1.50e5	7285	inactive
62	AstA (Allatostatin A)	1	1.12e5	5333	inactive
63	Bhmt (Betaine-homocysteine S-methyltransferase)	1	1.01e5	4199	inactive
64	tok (tolkin)	1	70985	5564	inactive
65	snoRNA:Me28S-C3227a + snoRNA:Me18S-A1061 + snoRNA:Me28S-C3227b + 7 more	1	1.26e5	4400	inactive
66	Adgf-C (Adenosine deaminase-related growth factor C)	1	93462	6971	inactive
67	CG17625	1	1.09e5	5648	inactive
68	veil	1	80100	3496	inactive
69	CG33332	1	1.28e5	7009	inactive
70	Octbeta3R (Octopamine beta3 receptor)	1	1.46e5	7162	inactive
71	Octbeta3R (Octopamine beta3 receptor)	2	1.56e5	6981	inactive
72	CR30374 (pseudo)	1	1.38e5	5514	inactive
73	Gycalpha99B (Guanylyl cyclase alpha-subunit at 99B)	1	1840	864	inactive
74	CG32198	1	1.20e5	3763	inactive
75	Osi9 (Osiris 9)	1	52559	3695	inactive
76	Ugt37E1 (UDP-glycosyltransferase family 37 member E1)	1	1.11e5	4765	inactive
77	CG42813 + CG42814	1	1684	952	inactive
78	CG42813 + CG42814	2	1.19e5	6682	inactive
79	ND-13A (NADH dehydrogenase (ubiquinone) 13 kDa A subunit)	1	1.45e5	4958	inactive
80	CG10465	1	1.10e5	4713	inactive
81	CG42232	1	70765	3756	inactive
82	CG42232	2	81907	4022	inactive
83	Cyp9b2 (Cytochrome P450 9b2)	1	1.33e5	5086	inactive
84	Ir60a (Ionotropic receptor 60a)	1	1.18e5	4561	inactive
